Our source for the binding values is publication PMC10435519.

Amino acid sequences for entries named in this document (tags omitted).
UniProt Q8BTW9: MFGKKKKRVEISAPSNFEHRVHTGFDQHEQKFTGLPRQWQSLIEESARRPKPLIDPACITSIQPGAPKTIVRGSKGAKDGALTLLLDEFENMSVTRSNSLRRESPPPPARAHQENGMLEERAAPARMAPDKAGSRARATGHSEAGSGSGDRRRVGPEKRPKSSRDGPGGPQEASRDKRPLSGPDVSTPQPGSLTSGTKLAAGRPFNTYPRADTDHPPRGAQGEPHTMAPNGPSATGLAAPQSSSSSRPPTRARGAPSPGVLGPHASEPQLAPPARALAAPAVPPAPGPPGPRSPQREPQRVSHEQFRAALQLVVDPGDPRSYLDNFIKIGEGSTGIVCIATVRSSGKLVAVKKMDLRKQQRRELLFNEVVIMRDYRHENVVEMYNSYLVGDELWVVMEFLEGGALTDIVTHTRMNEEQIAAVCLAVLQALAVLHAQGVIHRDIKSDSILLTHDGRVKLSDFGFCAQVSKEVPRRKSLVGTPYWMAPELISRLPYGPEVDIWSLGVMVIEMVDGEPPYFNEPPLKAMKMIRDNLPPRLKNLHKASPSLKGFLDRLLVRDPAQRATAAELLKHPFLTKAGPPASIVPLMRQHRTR

Results are given in words; binding and its absence hold for the method and conditions named. Binding seen in cells or lysates may run through a third protein. Some binding calls cover weakened binding; strength is not graded here.

For this experiment, the target named is T1, Peroxisome proliferator-activated receptor alpha (PPARα) (mouse (endogenous in mouse primary hepatocytes)) (UniProt P23204).
T1 sequence: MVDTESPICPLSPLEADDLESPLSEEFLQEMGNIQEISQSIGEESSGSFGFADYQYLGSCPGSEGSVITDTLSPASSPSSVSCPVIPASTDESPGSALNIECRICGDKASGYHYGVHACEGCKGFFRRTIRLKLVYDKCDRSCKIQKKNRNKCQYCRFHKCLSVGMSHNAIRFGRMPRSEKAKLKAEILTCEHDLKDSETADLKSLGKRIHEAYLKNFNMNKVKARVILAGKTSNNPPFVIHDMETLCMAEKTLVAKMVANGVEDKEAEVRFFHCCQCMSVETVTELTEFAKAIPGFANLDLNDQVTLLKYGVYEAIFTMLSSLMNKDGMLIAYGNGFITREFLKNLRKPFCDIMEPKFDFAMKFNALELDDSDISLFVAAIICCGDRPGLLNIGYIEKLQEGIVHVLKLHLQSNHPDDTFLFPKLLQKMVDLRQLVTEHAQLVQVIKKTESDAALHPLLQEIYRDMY
In words: co-IP; lysates (200 μg) of mouse primary hepatocytes infected with AdLacZ, AdPAK4 or AdPAK4 S474A; immunoprecipitated with antibodies against NCoR1 or PPARα, immunoblotted. On the technique in general: Immunoblotting shows a protein as a band on a membrane.

Take “p21-activated kinase 4 (PAK4) (from UniProt Q8BTW9 1-593) (enzyme)”: the binding result is “binds”.
